Experimental data reported in the supplement of paper PMC10849652.
The other results are listed elsewhere or left out.

By UniProt entry, the sequences of proteins in these tests, tags left out. Where a name states a change or a piece, a line headed by the entry shows the natural chain unless it says otherwise.
UniProt O95487: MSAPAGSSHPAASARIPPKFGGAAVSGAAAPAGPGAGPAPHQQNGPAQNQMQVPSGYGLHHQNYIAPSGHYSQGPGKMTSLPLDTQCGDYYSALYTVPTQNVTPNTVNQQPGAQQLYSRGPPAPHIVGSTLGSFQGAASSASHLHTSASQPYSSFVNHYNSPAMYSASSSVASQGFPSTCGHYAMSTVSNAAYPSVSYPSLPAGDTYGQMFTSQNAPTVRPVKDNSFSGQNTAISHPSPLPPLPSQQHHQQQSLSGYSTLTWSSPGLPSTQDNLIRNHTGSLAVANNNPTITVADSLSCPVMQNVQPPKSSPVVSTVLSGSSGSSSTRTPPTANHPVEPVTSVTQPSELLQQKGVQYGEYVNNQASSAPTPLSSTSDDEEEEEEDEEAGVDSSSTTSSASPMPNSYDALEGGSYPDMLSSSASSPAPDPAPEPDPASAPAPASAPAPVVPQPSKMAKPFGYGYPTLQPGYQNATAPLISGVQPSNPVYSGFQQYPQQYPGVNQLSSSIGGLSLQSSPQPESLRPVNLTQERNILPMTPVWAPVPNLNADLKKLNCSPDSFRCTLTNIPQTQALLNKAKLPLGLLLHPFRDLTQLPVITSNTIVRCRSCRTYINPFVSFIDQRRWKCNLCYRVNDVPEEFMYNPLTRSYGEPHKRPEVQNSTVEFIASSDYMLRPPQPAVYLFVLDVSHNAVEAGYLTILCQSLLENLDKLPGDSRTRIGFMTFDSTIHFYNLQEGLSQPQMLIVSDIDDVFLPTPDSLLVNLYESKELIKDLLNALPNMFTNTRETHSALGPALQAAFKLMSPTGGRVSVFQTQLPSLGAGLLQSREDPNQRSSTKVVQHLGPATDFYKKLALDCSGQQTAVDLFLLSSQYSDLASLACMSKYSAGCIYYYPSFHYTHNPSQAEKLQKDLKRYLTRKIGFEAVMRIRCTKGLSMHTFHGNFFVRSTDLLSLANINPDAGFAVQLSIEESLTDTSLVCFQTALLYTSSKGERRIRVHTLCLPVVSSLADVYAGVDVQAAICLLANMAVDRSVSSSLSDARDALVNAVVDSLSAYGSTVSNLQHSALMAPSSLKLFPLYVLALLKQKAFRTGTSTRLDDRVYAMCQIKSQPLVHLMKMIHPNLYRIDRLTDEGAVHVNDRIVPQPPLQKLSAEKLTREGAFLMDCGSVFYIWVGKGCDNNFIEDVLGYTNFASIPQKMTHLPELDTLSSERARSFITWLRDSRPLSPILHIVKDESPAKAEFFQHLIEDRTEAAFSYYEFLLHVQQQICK
UniProt Q9UBE0: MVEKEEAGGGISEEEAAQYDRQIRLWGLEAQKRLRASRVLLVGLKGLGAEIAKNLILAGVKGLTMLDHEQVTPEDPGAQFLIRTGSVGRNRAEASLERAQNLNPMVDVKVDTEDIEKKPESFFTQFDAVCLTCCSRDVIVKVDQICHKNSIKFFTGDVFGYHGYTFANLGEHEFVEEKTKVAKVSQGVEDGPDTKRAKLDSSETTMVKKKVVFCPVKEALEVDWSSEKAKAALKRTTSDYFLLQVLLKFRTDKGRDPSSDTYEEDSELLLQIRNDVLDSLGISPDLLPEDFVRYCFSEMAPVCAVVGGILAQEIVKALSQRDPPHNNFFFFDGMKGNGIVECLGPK
UniProt Q9NPR2: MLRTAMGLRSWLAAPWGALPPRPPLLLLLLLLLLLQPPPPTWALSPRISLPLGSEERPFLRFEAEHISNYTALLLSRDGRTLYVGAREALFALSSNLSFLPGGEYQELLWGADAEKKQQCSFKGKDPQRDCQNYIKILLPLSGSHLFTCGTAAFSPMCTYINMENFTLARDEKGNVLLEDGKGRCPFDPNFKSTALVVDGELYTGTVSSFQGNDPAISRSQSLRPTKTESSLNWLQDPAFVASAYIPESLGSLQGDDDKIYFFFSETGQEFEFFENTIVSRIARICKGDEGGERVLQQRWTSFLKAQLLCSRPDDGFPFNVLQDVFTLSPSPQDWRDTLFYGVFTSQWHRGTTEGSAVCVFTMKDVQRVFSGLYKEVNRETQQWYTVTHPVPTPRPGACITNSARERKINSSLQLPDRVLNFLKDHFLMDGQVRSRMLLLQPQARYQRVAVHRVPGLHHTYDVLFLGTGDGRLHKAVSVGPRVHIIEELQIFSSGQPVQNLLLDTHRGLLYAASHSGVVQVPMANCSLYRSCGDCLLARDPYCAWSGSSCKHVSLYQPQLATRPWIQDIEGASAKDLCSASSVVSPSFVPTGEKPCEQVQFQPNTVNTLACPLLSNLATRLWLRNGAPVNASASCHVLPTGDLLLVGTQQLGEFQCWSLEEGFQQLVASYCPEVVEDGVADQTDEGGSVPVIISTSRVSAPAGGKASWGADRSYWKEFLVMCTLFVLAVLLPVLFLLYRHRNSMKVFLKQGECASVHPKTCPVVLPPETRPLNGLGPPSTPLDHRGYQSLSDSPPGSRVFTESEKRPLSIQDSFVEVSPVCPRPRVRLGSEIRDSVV
UniProt Q8IZQ5, whole entry, looked up: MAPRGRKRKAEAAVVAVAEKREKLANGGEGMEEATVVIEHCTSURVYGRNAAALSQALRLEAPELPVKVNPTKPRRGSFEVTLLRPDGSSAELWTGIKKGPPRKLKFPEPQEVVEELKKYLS
UniProt O00560: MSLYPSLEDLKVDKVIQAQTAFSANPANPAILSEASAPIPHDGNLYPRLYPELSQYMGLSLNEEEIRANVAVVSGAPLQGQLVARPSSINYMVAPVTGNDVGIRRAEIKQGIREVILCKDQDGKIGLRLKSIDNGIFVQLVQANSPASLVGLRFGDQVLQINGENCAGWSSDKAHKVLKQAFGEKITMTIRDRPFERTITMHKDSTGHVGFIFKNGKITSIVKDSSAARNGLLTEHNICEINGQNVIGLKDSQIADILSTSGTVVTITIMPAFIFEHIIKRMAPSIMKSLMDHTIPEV
UniProt A6NKF1: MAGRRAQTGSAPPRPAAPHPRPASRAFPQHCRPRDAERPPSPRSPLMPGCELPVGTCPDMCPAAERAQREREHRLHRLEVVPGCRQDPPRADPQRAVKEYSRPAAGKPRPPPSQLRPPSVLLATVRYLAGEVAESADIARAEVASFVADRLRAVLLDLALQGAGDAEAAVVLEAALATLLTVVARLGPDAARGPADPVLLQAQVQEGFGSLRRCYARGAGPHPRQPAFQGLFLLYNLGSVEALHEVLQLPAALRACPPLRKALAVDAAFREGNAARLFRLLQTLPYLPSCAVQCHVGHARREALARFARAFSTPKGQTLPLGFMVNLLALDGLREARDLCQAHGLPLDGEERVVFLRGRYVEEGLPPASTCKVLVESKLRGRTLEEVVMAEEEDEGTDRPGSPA
UniProt O60613, whole entry, looked up: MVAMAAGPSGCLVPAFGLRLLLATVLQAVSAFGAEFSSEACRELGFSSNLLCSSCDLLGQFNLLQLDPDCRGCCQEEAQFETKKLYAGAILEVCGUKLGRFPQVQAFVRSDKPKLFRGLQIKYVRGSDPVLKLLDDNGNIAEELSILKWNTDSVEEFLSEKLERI
UniProt Q9Y6D0, whole entry, looked up: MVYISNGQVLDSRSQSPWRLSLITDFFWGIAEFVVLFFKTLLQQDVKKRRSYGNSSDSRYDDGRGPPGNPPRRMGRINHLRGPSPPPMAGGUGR
UniProt Q8IZE3: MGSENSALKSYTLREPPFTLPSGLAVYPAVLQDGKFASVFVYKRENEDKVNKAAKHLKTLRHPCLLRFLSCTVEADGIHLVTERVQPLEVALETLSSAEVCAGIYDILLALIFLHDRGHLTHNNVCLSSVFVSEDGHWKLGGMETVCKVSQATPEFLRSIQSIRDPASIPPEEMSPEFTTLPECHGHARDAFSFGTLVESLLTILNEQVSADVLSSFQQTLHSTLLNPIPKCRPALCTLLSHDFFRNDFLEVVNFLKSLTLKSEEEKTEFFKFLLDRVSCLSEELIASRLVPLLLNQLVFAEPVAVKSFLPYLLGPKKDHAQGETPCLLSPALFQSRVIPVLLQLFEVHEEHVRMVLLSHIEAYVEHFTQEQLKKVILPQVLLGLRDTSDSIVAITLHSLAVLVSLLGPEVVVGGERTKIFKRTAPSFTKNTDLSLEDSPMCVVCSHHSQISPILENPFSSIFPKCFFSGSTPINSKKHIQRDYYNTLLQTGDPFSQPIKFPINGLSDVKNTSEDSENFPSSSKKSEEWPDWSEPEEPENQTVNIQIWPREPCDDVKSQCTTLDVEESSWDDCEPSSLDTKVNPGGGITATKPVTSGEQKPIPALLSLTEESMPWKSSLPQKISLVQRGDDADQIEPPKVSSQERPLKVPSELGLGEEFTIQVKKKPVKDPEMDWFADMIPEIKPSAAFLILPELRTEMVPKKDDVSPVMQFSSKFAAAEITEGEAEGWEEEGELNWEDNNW
UniProt Q9HCN8: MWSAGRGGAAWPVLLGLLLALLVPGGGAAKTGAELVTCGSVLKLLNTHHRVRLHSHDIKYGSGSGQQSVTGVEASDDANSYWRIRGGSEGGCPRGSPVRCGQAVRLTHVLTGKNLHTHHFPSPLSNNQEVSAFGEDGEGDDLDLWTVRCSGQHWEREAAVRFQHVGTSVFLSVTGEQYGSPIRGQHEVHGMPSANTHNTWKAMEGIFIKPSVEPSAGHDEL
UniProt A3KN83: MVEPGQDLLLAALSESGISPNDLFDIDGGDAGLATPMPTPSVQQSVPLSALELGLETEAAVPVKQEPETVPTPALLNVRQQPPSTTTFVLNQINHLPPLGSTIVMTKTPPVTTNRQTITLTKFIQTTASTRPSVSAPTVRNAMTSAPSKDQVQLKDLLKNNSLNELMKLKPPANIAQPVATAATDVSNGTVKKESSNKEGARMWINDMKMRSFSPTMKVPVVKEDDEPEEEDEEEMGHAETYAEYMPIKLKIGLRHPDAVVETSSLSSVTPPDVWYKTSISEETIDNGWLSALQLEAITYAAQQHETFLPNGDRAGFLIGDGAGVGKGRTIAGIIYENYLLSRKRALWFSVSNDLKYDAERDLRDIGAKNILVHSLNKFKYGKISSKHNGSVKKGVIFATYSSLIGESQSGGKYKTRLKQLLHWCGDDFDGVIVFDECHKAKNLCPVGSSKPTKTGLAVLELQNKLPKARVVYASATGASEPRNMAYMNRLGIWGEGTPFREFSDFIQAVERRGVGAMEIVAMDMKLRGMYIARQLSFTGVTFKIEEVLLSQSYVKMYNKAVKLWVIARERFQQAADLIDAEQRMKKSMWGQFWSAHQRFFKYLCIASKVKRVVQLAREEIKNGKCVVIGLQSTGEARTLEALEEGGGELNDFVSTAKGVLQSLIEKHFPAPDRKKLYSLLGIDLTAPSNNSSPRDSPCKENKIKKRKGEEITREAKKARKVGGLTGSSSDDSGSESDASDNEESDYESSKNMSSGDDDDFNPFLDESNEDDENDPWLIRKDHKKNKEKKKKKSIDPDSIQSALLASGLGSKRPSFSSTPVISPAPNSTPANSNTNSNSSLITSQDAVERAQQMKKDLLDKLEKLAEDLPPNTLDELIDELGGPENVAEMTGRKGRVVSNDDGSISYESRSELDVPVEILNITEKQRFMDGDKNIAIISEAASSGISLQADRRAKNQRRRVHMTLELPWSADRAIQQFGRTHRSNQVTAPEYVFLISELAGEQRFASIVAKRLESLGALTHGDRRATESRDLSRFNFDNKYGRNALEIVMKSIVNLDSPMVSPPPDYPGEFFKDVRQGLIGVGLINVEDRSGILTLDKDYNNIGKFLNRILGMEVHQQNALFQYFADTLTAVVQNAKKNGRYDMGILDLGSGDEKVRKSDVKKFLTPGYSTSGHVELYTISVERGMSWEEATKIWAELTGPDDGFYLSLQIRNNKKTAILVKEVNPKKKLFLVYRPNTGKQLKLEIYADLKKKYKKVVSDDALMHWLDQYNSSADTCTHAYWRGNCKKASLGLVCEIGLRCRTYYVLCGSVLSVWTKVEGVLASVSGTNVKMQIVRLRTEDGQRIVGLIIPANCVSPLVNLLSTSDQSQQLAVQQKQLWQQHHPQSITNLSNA
UniProt Q5PRF9: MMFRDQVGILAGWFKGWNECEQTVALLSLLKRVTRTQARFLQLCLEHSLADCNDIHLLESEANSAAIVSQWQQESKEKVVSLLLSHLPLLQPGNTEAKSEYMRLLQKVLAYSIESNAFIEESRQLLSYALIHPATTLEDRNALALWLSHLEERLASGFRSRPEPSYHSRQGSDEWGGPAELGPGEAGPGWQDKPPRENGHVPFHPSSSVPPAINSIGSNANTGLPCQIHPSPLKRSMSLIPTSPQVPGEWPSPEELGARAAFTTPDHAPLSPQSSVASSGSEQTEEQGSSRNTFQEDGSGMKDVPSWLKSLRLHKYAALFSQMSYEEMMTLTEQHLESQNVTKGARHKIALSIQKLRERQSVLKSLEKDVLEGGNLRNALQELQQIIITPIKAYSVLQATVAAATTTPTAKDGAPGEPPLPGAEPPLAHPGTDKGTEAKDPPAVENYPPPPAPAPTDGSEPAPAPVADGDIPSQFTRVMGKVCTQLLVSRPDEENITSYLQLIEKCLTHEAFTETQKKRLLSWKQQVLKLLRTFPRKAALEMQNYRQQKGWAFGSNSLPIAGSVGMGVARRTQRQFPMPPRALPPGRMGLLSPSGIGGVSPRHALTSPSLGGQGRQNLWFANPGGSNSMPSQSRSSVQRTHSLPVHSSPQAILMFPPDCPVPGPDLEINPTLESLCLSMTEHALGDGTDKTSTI

Key:
Test in all cases: log2 fold change, soluble protein after heating vs DMSO (PISA); higher = thermal stabilisation; K562 lysate, 10 uM; active = over 0.2 and 3.5 SD of the protein, either way, in both replicates (recomputed)
nilotinib = compound: Cc1cn(-c2cc(NC(=O)c3ccc(C)c(Nc4nccc(-c5cccnc5)n4)c3)cc(C(F)(F)F)c2)cn1 [nilotinib]
How it was run: (§1)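 Following dounce homogenisation of K562 pellets in PBS pH 7.4 with 1 mM MgCl2, crude extract at 1 mg/mL protein was incubated for 30 min with 10 μM compound. Aliquots were then heated for 3 min over 48°C-58°C and pooled, NP-40 was added to 0.5% at 4°C, and soluble protein was recovered as the supernatant at 21,000xg for 90 min. Channel-sum-equalised TMTpro 16plex LC-MS/MS quantified this protein. Each value, from duplicates, is a log-two fold change in thermal stability relative to solvent controls.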

[1] = compound: Cc1nc(Nc2n[nH]c3c2CN(C(=O)N[C@H](CN(C)C)c2ccccc2)C3(C)C)c2sccc2n1
How it was run: as §1

dasatinib = compound: Cc1nc(Nc2ncc(C(=O)Nc3c(C)cccc3Cl)s2)cc(N2CCN(CCO)CC2)n1 [dasatinib]
How it was run: as §1

[2] = compound: Cc1ncc(-c2ccnc(Nc3ccc(S(C)(=O)=O)cc3)n2)n1C(C)C
How it was run: as §1

[3] = compound: Cn1cc(-c2ccc3c(c2)CCN3C(=O)Cc2cccc(C(F)(F)F)c2)c2c(N)ncnc21
How it was run: as §1

quisinostat = compound: Cn1cc(CNCC2CCN(c3ncc(C(=O)NO)cn3)CC2)c2ccccc21 [quisinostat]
How it was run: as §1

tipifarnib = compound: Cn1cncc1[C@@](N)(c1ccc(Cl)cc1)c1ccc2c(c1)c(-c1cccc(Cl)c1)cc(=O)n2C [tipifarnib]
How it was run: as §1

[4] = compound: NC(=O)Nc1cc(-c2cccc(F)c2)sc1C(=O)N[C@H]1CCCNC1
How it was run: as §1

[5] = compound: NC(=O)c1cnc(N[C@@H]2CCCC[C@@H]2N)nc1Nc1cccc(-n2nccn2)c1
How it was run: as §1

[6] = compound: NC1(c2ccc(-c3nc4ccn5c(=O)[nH]nc5c4cc3-c3ccccc3)cc2)CCC1
How it was run: as §1

Measured: log2 fold change

SEC24B isoform 3 (UniProt O95487)
inactive: nilotinib 0.013 | [1] -0.038 | dasatinib -0.068 | [2] -0.002 | [3] 0.007 | quisinostat -0.02 | tipifarnib -0.022 | [4] 0.037 | [5] 0.002 | [6] 0.015

SENP6 (UniProt Q9GZR1)
inactive: nilotinib 0.055 | [1] 0.018 | dasatinib 0.031 | [2] -0.002 | [3] 0.046 | quisinostat -0.067 | tipifarnib -0.01 | [4] -0.013 | [5] -0.006 | [6] 0.055

SAE1 (UniProt Q9UBE0)
inactive: nilotinib 0.012 | [1] 0.022 | dasatinib 0.002 | [2] 0.022 | [3] 0.013 | quisinostat 0.029 | tipifarnib -0.009 | [4] -0.009 | [5] 0.002 | [6] -0.013

SBF1 isoform 4 (UniProt O95248)
inactive: nilotinib -0.018 | [1] -0.041 | dasatinib 0.092 | [2] -0.046 | [3] 0.047 | quisinostat -0.103 | tipifarnib 0.162 | [4] 0.12 | [5] 0.039 | [6] 0.091

SBDS (UniProt Q9Y3A5)
inactive: nilotinib 0.005 | [1] 0.014 | dasatinib -0.013 | [2] 0.038 | [3] -0.009 | quisinostat -0.032 | tipifarnib 0.007 | [4] -0.016 | [5] -0.013 | [6] -0.003

SCCPDH (UniProt Q8NBX0)
inactive: nilotinib 0.12 | [1] -0.002 | dasatinib 0.058 | [2] 0.151 | [3] -0.019 | quisinostat -0.058 | tipifarnib 0.049 | [4] -0.217 | [5] -0.081 | [6] 0.022

SEC13 isoform 3 (UniProt P55735)
inactive: nilotinib -0.02 | [1] 0.038 | dasatinib -0.01 | [2] 0.031 | [3] 0.02 | quisinostat 0.079 | tipifarnib -0.014 | [4] 0.006 | [5] 0.006 | [6] -0.006

SEMA4C (UniProt Q9C0C4)
inactive: nilotinib -0.011 | [1] -0.021 | dasatinib 0.019 | [2] -0.041 | [3] 0.022 | quisinostat 0.069 | tipifarnib 0.003 | [4] -0.039 | [5] 0.009 | [6] 0.033

SCD (UniProt O00767)
inactive: nilotinib -0.007 | [1] -0.017 | dasatinib 0.01 | [2] -0.01 | [3] 0.007 | quisinostat -0.144 | tipifarnib -0.077 | [4] -0.023 | [5] -0.183 | [6] 0.03

SEMA4B (UniProt Q9NPR2)
inactive: nilotinib 0.04 | [1] -0.116 | dasatinib 0.035 | [2] 0.073 | [3] 0.163 | quisinostat -0.03 | tipifarnib 0.031 | [4] -0.001 | [5] -0.05 | [6] 0.003

SAP18 isoform 2 (UniProt O00422)
inactive: nilotinib 0.007 | [1] 0.003 | dasatinib 0 | [2] -0.04 | [3] 0.013 | quisinostat -0.061 | tipifarnib -0.011 | [4] -0.029 | [5] 0.052 | [6] -0.02

SELENOH (UniProt Q8IZQ5)
inactive: nilotinib 0.004 | [1] -0.007 | dasatinib -0.03 | [2] 0.009 | [3] 0.01 | quisinostat -0.02 | tipifarnib 0.046 | [4] -0.021 | [5] 0.01 | [6] 0.035

SDHB, A0A087WWT1
inactive: nilotinib -0.067 | [1] 0.074 | dasatinib -0.393 | [2] -0.015 | [3] 0.138 | quisinostat -0.085 | tipifarnib 0.075 | [4] -0.094 | [5] 0.007 | [6] 0.014

SEC61A1 (UniProt P61619)
inactive: nilotinib -0.004 | [1] 0.018 | dasatinib 0.054 | [2] 0.001 | [3] -0.026 | quisinostat 0.02 | tipifarnib 0.014 | [4] -0.02 | [5] -0.036 | [6] -0.031

SCAF1 (UniProt Q9H7N4)
inactive: nilotinib -0.053 | [1] 0.115 | dasatinib -0.018 | [2] -0.13 | [3] -0.042 | quisinostat -0.019 | tipifarnib -0.06 | [4] -0.028 | [5] -0.014 | [6] 0.1

SDHAF2 (UniProt Q9NX18)
inactive: nilotinib 0.097 | [1] 0.043 | dasatinib -0.003 | [2] 0.003 | [3] -0.04 | quisinostat -0.033 | tipifarnib -0.068 | [4] 0.005 | [5] 0.006 | [6] 0.011

SEPTIN5 (UniProt Q99719)
inactive: nilotinib 0.024 | [1] 0.019 | dasatinib -0.007 | [2] -0.028 | [3] -0.054 | quisinostat -0.018 | tipifarnib 0.038 | [4] -0.014 | [5] -0.022 | [6] 0.001

S100P (UniProt P25815)
inactive: nilotinib 0.126 | [1] 0.103 | dasatinib 0.071 | [2] 0.123 | [3] -0.041 | quisinostat 0.055 | tipifarnib 0.035 | [4] -0.075 | [5] -0.038 | [6] 0.002

SEPTIN7 (UniProt Q16181)
inactive: nilotinib -0.001 | [1] -0.024 | dasatinib -0.011 | [2] -0.041 | [3] 0.021 | quisinostat -0.04 | tipifarnib 0 | [4] 0.003 | [5] 0.001 | [6] 0.002

SDHAF3 (UniProt Q9NRP4)
inactive: nilotinib 0.015 | [1] 0.018 | dasatinib -0.05 | [2] 0.033 | [3] 0.093 | quisinostat -0.015 | tipifarnib -0.042 | [4] 0.033 | [5] 0.009 | [6] 0.121

SDCBP isoform 2 (UniProt O00560)
inactive: nilotinib 0.141 | [1] 0.007 | dasatinib 0.052 | [2] -0.261 | [3] 0.042 | quisinostat 0.019 | tipifarnib 0.108 | [4] -0.049 | [6] -0.124

SAC3D1 (UniProt A6NKF1)
inactive: nilotinib -0.118 | [1] 0.116 | [2] 0.109 | quisinostat -0.124 | tipifarnib 0.061 | [4] -0.043

SCG3 (UniProt Q8WXD2)
inactive: nilotinib 0.038 | [1] 0.12 | dasatinib 0.004 | [2] -0.02 | [3] 0.006 | quisinostat 0.008 | tipifarnib -0.045 | [4] -0.039 | [6] -0.005

SCAF8 (UniProt Q9UPN6)
inactive: nilotinib 0.003 | [1] -0.048 | dasatinib -0.07 | [2] 0.028 | [3] 0.018 | quisinostat 0 | tipifarnib -0.044 | [4] 0.039 | [5] 0.002 | [6] 0.005

SAGE1 (UniProt Q9NXZ1)
inactive: nilotinib 0.064 | [1] 0.007 | dasatinib -0.046 | [2] 0.073 | [3] -0.069 | quisinostat 0.008 | tipifarnib -0.071 | [4] 0.032 | [6] -0.127

Copied from above (2 entries):
SAC3D1 (UniProt A6NKF1)
inactive: nilotinib -0.118 | [1] 0.116 | [2] 0.109 | quisinostat -0.124 | tipifarnib 0.061 | [4] -0.043

SCG3 (UniProt Q8WXD2)
inactive: nilotinib 0.038 | [1] 0.12 | dasatinib 0.004 | [2] -0.02 | [3] 0.006 | quisinostat 0.008 | tipifarnib -0.045 | [4] -0.039 | [6] -0.005

Going on with the list:

SEC22A (UniProt Q96IW7)
inactive: nilotinib -0.097 | [1] -0.013 | [2] 0.338 | quisinostat 0.072 | tipifarnib -0.242 | [4] -0.112 | [5] 0.053

SELENOF (UniProt O60613)
inactive: nilotinib 0.061 | [1] -0.006 | dasatinib 0.001 | [2] 0.03 | [3] 0.025 | quisinostat -0.009 | tipifarnib -0.026 | [4] -0.003 | [5] -0.035 | [6] -0.034

SEL1L3 (UniProt Q68CR1)
inactive: nilotinib 0.044 | [1] -0.146 | dasatinib -0.102 | [2] -0.088 | [3] -0.028 | quisinostat -0.064 | tipifarnib -0.177 | [4] 0.11 | [6] 0.003

SELENOK (UniProt Q9Y6D0)
inactive: nilotinib -0.009 | [1] -0.032 | dasatinib 0.082 | [2] 0.064 | [3] -0.032 | tipifarnib -0.077 | [5] 0.001

SCYL3 isoform 2 (UniProt Q8IZE3)
inactive: nilotinib -0.053 | [1] 0.004 | dasatinib -0.113 | [2] 0.012 | [3] 0.031 | quisinostat -0.115 | tipifarnib -0.152 | [4] 0.024 | [6] -0.031

SART3, A0A499FI31
inactive: nilotinib -0.019 | [1] 0.006 | dasatinib 0.015 | [2] -0.002 | [3] 0.006 | quisinostat -0.027 | tipifarnib -0.003 | [4] 0.013 | [5] -0.026 | [6] 0.012

2 records picked at random from those above:
SEL1L3 (UniProt Q68CR1)
inactive: nilotinib 0.044 | [1] -0.146 | dasatinib -0.102 | [2] -0.088 | [3] -0.028 | quisinostat -0.064 | tipifarnib -0.177 | [4] 0.11 | [6] 0.003

SDHAF3 (UniProt Q9NRP4)
inactive: nilotinib 0.015 | [1] 0.018 | dasatinib -0.05 | [2] 0.033 | [3] 0.093 | quisinostat -0.015 | tipifarnib -0.042 | [4] 0.033 | [5] 0.009 | [6] 0.121

Next results

SDAD1 (UniProt Q9NVU7)
inactive: nilotinib 0.011 | [1] 0.01 | dasatinib -0.026 | [2] 0.024 | [3] 0.01 | quisinostat 0.005 | tipifarnib 0.018 | [4] 0.004 | [5] 0.013 | [6] -0.034

SEL1L (UniProt Q9UBV2)
inactive: nilotinib -0.069 | [1] 0.016 | dasatinib -0.032 | [2] -0.039 | [3] 0.006 | quisinostat -0.003 | tipifarnib -0.108 | [4] 0.014 | [5] 0.007 | [6] 0.01

SCFD2 (UniProt Q8WU76)
inactive: nilotinib 0.073 | [1] 0.07 | dasatinib -0.06 | [2] -0.009 | [3] 0.022 | quisinostat -0.055 | tipifarnib -0.063 | [4] 0.055 | [5] -0.039 | [6] -0.002

SDF2L1 (UniProt Q9HCN8)
inactive: nilotinib 0.007 | [1] 0.008 | dasatinib -0.009 | [2] 0.01 | [3] -0.039 | quisinostat -0.017 | tipifarnib 0.003 | [4] -0.002 | [5] -0.024 | [6] -0.005

SBNO1 (UniProt A3KN83)
inactive: nilotinib -0.009 | [1] -0.009 | dasatinib -0.01 | [2] -0.006 | [3] 0.014 | quisinostat -0.025 | tipifarnib -0.007 | [4] 0.004 | [5] 0 | [6] -0.006

SAMD4B (UniProt Q5PRF9)
inactive: nilotinib -0.033 | [1] 0.039 | dasatinib 0.014 | [2] 0.021 | [3] 0.024 | quisinostat -0.044 | tipifarnib -0.014 | [4] 0.028 | [5] 0 | [6] -0.02
